Test results reported in PubChem BioAssay AID1347076 (National Center for Advancing Translational Sciences (NCATS), 2019).
Among all 400,000 compounds or so, about 13,000 (3.2%) were called active. Inconclusive means that the source gave no clear call. Such entries were picked first, then a sample of the others. Calls come from the whole dose curve; as a rule, active = well fitted cell-killing curve with a large enough effect; inconclusive = small, poorly fitted or top-dose-only effect, or effect the other way; inactive = flat fitted curve, though single readings scatter. A potency beside an inconclusive call is a rough fit, not a confirmed value.

Assay: qHTS assay for MDR1-selective chemotherapeutics: Primary screen using the drug-selected MDR subline cells KB-V1; note: nearly all actives have a fitted effect of over 60% in size
Conditions: KB-V1 MDR cells viability, CellTiter-Glo, 72 h; activity change, negative = cytotoxicity: at 46.1 µM (top of the series)
In short: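 Cytotoxicity via CellTiter-Glo luminescence after 72 h compound exposure at 37 degrees C. Cells: drug-selected KB-V1 line, DMEM phenol-red free plus 10% FBS. Compounds tested at multiple concentrations; normalized data fitted to concentration-effect curves.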
% is set by controls: 0 for no effect and ±100 for the full control effect; potency is the fitted concentration of half-maximal effect.

SMILES	Potency	activity change, negative = cytotoxicity
Cc1nn(-c2nc3ccccc3s2)c(N)c1-c1ccccc1	inconclusive: 29.1 µM [cytotoxic, single point]	–
Cc1c(C(=O)O)cccc1-c1ccc(/C=C2/NC(=O)N(c3ccccc3)C2=O)o1	–	inactive: 5.74%
CCOC(=O)c1c(NC(=O)CCN2C(=O)c3ccccc3C2=O)sc(C(=O)OC(C)C)c1C	inconclusive: 2.31 µM [cytotoxic, full curve, poor fit]	–
O=C(CCC(=O)N(CC(=O)NC1CCCC1)Cc1ccc2c(c1)OCO2)Nc1ccccn1	inconclusive: 11.6 µM [cytotoxic, partial curve, poor fit]	–
COC1=CC(=O)OC(C)(c2ccccc2)C1 (configuration not stated)	inconclusive: 20.6 µM [rising, single point]	–
CCc1ccc(N2CCN(S(=O)(=O)CC34CCC(CC3=O)C4(C)C)CC2)cc1 (configuration not stated)	inconclusive: 32.6 µM [cytotoxic, single point]	–
O=C(Cc1cccs1)Nc1cccc(C(=O)Nc2ccco2)c1	inconclusive: 22.4 µM [cytotoxic, partial curve, poor fit]	–
COC(=O)c1ccc(NC(=O)CSc2nc3[nH]ncc3c(=O)[nH]2)cc1	inconclusive: 16.4 µM [rising, single point]	–
CN1CCN(c2ccccc2NC(=O)c2cc3ccccc3o2)CC1	inconclusive: 11.6 µM [cytotoxic, partial curve, poor fit]	–
Cc1nc(SCCC(C)C)c([N+](=O)[O-])[nH]1	inconclusive: 18.4 µM [cytotoxic, single point]	–
Oc1ccc(CN2CCc3ccccc3C2)c2cccnc12	inconclusive: 2.06 µM [cytotoxic, full curve, poor fit]	–
O=C1CN(C(=O)COc2ccc([N+](=O)[O-])cc2Cl)c2ccccc2N1	inconclusive: 18.4 µM [cytotoxic, single point]	–
CC(NC(=O)C(=O)c1cn(CC(=O)N2CCCC2)c2ccccc12)c1ccccc1 (configuration not stated)	inconclusive: 6.51 µM [cytotoxic, partial curve]	–
O=C(Cc1ccc(Cl)cc1)N1CCN(c2ccc(F)cc2)CC1	inconclusive: 18.4 µM [cytotoxic, partial curve]	–
COc1ccc(C(=O)NNC(=O)CN(C)S(=O)(=O)c2ccc(Cl)cc2)c(OC)c1OC	inconclusive: 20.6 µM [cytotoxic, single point]	–
COc1ccccc1C(NC(=O)C1CCN(CCc2ccc(Br)cc2)CC1)c1ccccn1 (configuration not stated)	–	inactive: -3.6%
Cc1cnc(NC(=O)Nc2ccc(OCc3ccccc3)cc2)c(Br)c1	–	inactive: 0%
COc1ccccc1-c1cc(NC(=O)COc2ccccc2Cl)n(-c2ccccc2)n1	–	inactive: 16.3%
CCS(=O)(=O)c1ccc(-c2csc(-c3ccc(Cl)cc3)n2)c(Cl)c1Cl	inconclusive: 18.4 µM [cytotoxic, partial curve]	–
COC(=O)[C@@]1(Cc2ccc(F)cc2)[C@H]2c3cc(C(=O)N4CCCC4)n(Cc4ccc(S(C)(=O)=O)cc4)c3C[C@H]2CN1C(=O)c1ccccc1	inconclusive: 18.4 µM [cytotoxic, partial curve]	–
COc1ccccc1C1C2=C(N=c3s/c(=C/c4cccc(OCC(=O)O)c4)c(=O)n31)c1ccccc1CC2 (configuration not stated)	inconclusive: 11.6 µM [rising, partial curve]	–
COCCN(C(=O)COC(=O)C(C)(C)Oc1ccc(Cl)cc1)c1c(N)n(Cc2ccccc2)c(=O)[nH]c1=O	inconclusive: 18.4 µM [rising, single point]	–
COc1ccc(C(C(=O)NC2CCCC2)N(Cc2ccccc2)C(=O)c2snc(C(N)=O)c2N)cc1OC (configuration not stated)	–	inactive: -22.2%

SMILES	Potency	activity change, negative = cytotoxicity
CCC(C(=O)Nc1c(C)cccc1C)n1c(-c2cnc(C)cn2)nc2ccccc21 (configuration not stated)	inconclusive: 8.2 µM [cytotoxic, partial curve, poor fit]	–
Cc1cccc2c1-c1sc(C(=O)NCCc3ccc(Cl)cc3)cc1CO2	inconclusive: 18.4 µM [cytotoxic, single point]	–
O=[N+]([O-])c1ccc(NN=C2CCCCC2)c([N+](=O)[O-])c1	inconclusive: 7.31 µM [rising, partial curve, poor fit]	–
Cc1cc(/C=C2\C=Cc3ccccc32)ccc1N(C)C	–	inactive: 0%
O=C(NNc1c2ccccc2nc2ccccc12)C(O)c1ccccc1 (configuration not stated)	inconclusive: 23.1 µM [cytotoxic, single point]	–
Cc1ccc(C(=O)N2CCc3cc4c(cc3C2C)OCCCO4)cc1 (configuration not stated)	inconclusive: 2.31 µM [rising, full curve]	–
COc1cc(-c2nc(-c3ccccc3)c(-c3cccs3)[nH]2)cc(OC)c1O	active: 20.6 µM	–
O=c1[nH]c2ccccc2cc1CN(c1ccccc1)S(=O)(=O)c1ccccc1	inconclusive: 6.51 µM [cytotoxic, partial curve, poor fit]	–
O=C1c2c(-c3ccc(Br)cc3)noc2CCN1Cc1cn(Cc2ccccc2)nn1	inconclusive: 18.4 µM [cytotoxic, single point]	–
CC(C)C(=O)Nc1ccc(C(=O)CN2C(=O)NC3(CCOc4ccccc43)C2=O)cc1 (configuration not stated)	–	inactive: 0%
CCCCCCSc1ccc(-c2nc3cnccn3c2NC2CCCCC2)cc1	inconclusive: 9.2 µM [cytotoxic, partial curve]	–
CCC1CCCCN1C(=O)c1ccc2nc(Cc3ccc(OC)cc3)oc2c1 (configuration not stated)	–	inactive: -12%
COc1cc(/C=N/NC(=O)CC#N)ccc1Oc1nc(Cl)ncc1F	–	inactive: -12.2%
COc1cccc(CN2CCC2(C)C(=O)Nc2cccc3cccnc23)c1OC (configuration not stated)	inconclusive: 7.31 µM [cytotoxic, partial curve]	–
CCC(C)[C@H](NS(=O)(=O)c1ccc(C)cc1)C(=O)N1CCC(C(=O)N2CCC(C(N)=O)CC2)CC1 (some centres not stated)	–	inactive: 0%
O=C(NCCN1CCCCC1)Nc1ccc(Br)cc1	–	inactive: 8.25%
CN(C)C(=O)c1cccc(-c2cnc3c(NC=O)cc(-c4ccccc4Cl)cn23)c1	inconclusive: 18.4 µM [cytotoxic, single point]	–
COc1ccc(NC(=O)c2ccc3c(c2)c(C)c(C)n3Cc2ccc(F)cc2)cc1	active: 8.2 µM	–
S=C(NCCC1=CCCCC1)Nc1ccc(Cl)cc1	active: 7.31 µM	–
CC(C)(C)C(=O)NC(=S)NNC(=O)C(c1ccccc1)c1ccccc1	inconclusive: 2.59 µM [cytotoxic, full curve, poor fit]	–
COC(=O)c1c(C)[nH]c(C(=O)C(C)OC(=O)c2ccco2)c1C (configuration not stated)	inconclusive: 32.6 µM [cytotoxic, single point]	–
Cc1cc2c(cc1C)-c1nnnn1C(N1CCCC1)C(=O)N2 (configuration not stated)	–	inactive: -12.4%
CN(C)S(=O)(=O)c1ccc2c(c1)N(CC(=O)N1CCCCC1)CCS2	inconclusive: 10.3 µM [cytotoxic, partial curve]	–

SMILES	Potency	activity change, negative = cytotoxicity
N#Cc1c(C(F)(F)F)cc(-c2ccccc2)nc1SCC(=O)Nc1sc2c(c1C#N)CCC2	inconclusive: 4.11 µM [cytotoxic, full curve, poor fit]	–
COc1cccc(-c2nnc(SCc3nc4ccccc4s3)n2C)c1	inconclusive: 23.1 µM [cytotoxic, partial curve]	–
Cc1occc1C(=O)/C(C#N)=C/c1ccc(O)c(Br)c1	inconclusive: 0.206 µM [rising, full curve]	–
CCCCOc1ccc(C2C(C(=O)c3cccs3)=C(O)C(=O)N2CCN2CCOCC2)cc1 (configuration not stated)	inconclusive: 29.1 µM [rising, single point]	–
O=C(Cn1cnc(S(=O)(=O)N2CCCC2)c1)Nc1ccccc1	inconclusive: 7.31 µM [rising, partial curve]	–
Cc1cc(Nc2cc(Cl)cc(Cl)c2)nc(N)n1	inconclusive: 16.4 µM [cytotoxic, partial curve, poor fit]	–
CCN1C(=O)c2cccc3c(NC(=O)C4CCCCC4)ccc1c23	inconclusive: 16.4 µM [cytotoxic, partial curve]	–
CCOC(=O)CN1C(=O)N(CC(=O)OCC)C(c2ccccc2)(c2ccccc2)C1=O	–	inactive: -26.9%
O=C(NCc1ccco1)C1CC(c2ccc(Cl)cc2)=NO1 (configuration not stated)	–	inactive: 3.74%
NS(=O)(=O)c1ccc(CCNc2nn3c(-c4cccc(OC(F)(F)F)c4)cnc3s2)cc1	–	inactive: -30%
CC(C)C1CCN(C(=O)C2CCC(=O)N(C3CCCCCC3)C2)CC1 (configuration not stated)	inconclusive: 29.1 µM [cytotoxic, single point]	–
CCCN(CCC)Cc1c(C(=O)N/N=C/C(C)=C\c2ccccc2)nnn1-c1nonc1N	–	inactive: 10.3%
CC(NC(=O)CCc1nnc(-c2ccc(-c3ccccc3)cc2)o1)c1nc2ccccc2[nH]1 (configuration not stated)	inconclusive: 16.4 µM [cytotoxic, single point]	–
COc1ccc(CCNC(=O)c2cc(-c3ccc4c(c3)OCO4)on2)cc1OC	–	inactive: -20.7%
COc1ccc2nc(NC(=O)CCN3C(=S)NC(C)(C)CC3C)sc2c1 (configuration not stated)	inconclusive: 7.31 µM [cytotoxic, partial curve]	–
COc1ccc(NC(=O)c2ccc3c(c2)c(C)c(C)n3Cc2ccc(F)cc2)c(OC)c1	–	inactive: 10.6%
Cc1cccc(Oc2ncnc3oc(-c4ccccc4)cc23)c1C	inconclusive: 25.9 µM [cytotoxic, single point]	–
Cc1cccc(Nc2ccccc2C(=O)OCC(=O)N(C)C2CCS(=O)(=O)C2)c1C (configuration not stated)	inconclusive: 29.1 µM [cytotoxic, single point]	–
CCCOc1ccc(OC(=O)c2c(-c3ccccc3Cl)noc2C)cc1	–	inactive: 14.3%
c1c[nH]c(C2CCN(c3ncc(-c4ccc5c(c4)OCCCO5)s3)CC2)n1	–	inactive: 13.3%
COc1ccc(NC(=O)Cn2c(=O)n(-c3ccc(CC(=O)NCC4CCCO4)cc3)c(=O)c3ccccc32)c(OC)c1 (configuration not stated)	–	inactive: 25.4%

Some values from the entries so far:
Cc1cccc(Oc2ncnc3oc(-c4ccccc4)cc23)c1C | Potency: inconclusive: 25.9 µM [cytotoxic, single point]
Cc1cccc(Nc2ccccc2C(=O)OCC(=O)N(C)C2CCS(=O)(=O)C2)c1C (configuration not stated) | Potency: inconclusive: 29.1 µM [cytotoxic, single point]
O=C1c2c(-c3ccc(Br)cc3)noc2CCN1Cc1cn(Cc2ccccc2)nn1 | Potency: inconclusive: 18.4 µM [cytotoxic, single point]
